Reference: PMC8981113
Results are given in words; binding and its absence hold for the method and conditions named. Binding seen in cells or lysates may run through a third protein. Here binding means that the protein was enriched with, or labelled near, the bait; the list need not be complete.

Sequences of proteins named here, by UniProt entry; tags and fusion partners are left off.
UniProt P03179: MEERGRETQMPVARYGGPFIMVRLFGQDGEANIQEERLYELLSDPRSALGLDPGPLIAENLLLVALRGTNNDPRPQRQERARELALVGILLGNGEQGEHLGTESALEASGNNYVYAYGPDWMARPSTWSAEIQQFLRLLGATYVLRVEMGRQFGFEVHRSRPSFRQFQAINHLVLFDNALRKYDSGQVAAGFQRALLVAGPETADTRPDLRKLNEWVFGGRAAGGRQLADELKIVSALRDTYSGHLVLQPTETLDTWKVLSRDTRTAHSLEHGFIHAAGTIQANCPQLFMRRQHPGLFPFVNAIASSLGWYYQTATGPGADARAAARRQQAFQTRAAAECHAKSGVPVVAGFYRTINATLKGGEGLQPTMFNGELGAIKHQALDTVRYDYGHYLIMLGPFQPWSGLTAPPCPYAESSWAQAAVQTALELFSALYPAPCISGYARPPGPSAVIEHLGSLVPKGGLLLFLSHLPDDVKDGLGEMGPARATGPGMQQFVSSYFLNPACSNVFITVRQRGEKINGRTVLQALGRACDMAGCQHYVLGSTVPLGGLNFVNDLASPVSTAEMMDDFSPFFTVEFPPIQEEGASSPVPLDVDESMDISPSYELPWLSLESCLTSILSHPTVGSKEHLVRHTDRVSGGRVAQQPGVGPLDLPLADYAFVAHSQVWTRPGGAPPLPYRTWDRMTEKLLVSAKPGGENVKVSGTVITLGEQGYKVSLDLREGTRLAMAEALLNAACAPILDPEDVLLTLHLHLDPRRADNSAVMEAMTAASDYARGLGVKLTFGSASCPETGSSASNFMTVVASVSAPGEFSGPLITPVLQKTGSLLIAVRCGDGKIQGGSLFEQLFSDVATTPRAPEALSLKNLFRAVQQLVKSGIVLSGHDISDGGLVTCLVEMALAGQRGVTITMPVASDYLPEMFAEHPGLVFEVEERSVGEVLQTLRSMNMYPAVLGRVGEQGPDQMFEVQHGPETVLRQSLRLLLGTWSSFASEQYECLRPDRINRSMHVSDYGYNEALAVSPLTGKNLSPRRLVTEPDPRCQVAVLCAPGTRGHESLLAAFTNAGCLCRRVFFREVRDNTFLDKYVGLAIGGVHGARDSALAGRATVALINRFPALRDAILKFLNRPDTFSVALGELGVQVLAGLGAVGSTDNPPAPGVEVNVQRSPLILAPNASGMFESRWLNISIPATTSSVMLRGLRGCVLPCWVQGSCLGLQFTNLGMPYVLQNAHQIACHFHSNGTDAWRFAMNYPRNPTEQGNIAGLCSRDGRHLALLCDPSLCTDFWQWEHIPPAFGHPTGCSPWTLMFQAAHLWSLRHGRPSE

Target: HA-epitope tagged BNRF1 (EBV major tegument protein), wild type (Epstein-Barr virus) (UniProt P03179)
Assay: affinity purification with mass spectrometry; HA-tagged BNRF1 (dox 15 h) from P3HR-1 ZHT/RHT induced for lytic replication by 4-HT/NaB 24 h; MCLB buffer (50 mM Tris-HCl pH 7.5, 300 mM NaCl, 0.5% NP40, 1 mM DTT); anti-HA agarose, HA peptide elution; LC-MS/MS, CompPASS against HA-BPLF1, HA-BLRF2, HA-BOLF1 controls

B1: CAPNS1 (calpain regulatory subunit) (protein, UniProt P04632 1-268)
chain: MFLVNSFLKGGGGGGGGGGGLGGGLGNVLGGLISGAGGGGGGGGGGGGGGGGGGGGTAMRILGGVISAISEAAAQYNPEPPPPRTHYSNIEANESEEVRQFRRLFAQLAGDDMEVSATELMNILNKVVTRHPDLKTDGFGIDTCRSMVAVMDSDTTGKLGFEEFKYLWNNIKRWQAIYKQFDTDRSGTICSSELPGAFEAAGFHLNEHLYNMIIRRYSDESGNMDFDNFISCLVRLDAMFRAFKSLDKDGTGQIQVNIQEWLQLTMYS
B1 was tested, and the binding was “binds”.
